Test results taken from US8026219B2 (Universitat de Girona, priority 2006, dated 2011).
One purity is given for all peptides; the source may state it once. For part of these data: HELM strings list residues between dots; [ac] is acetyl, [am] amide, other brackets name non-standard units.

Assays:
[1] = general procedure: Fmoc solid-phase peptide synthesis; Fmoc-Rink-MBHA; HBTU, DIAE; details: whole synthesis, scale 19.8 μmoles
[2] = general procedure: Fmoc solid-phase peptide synthesis; Fmoc-Rink-MBHA resin, 0.66 mmol/g; HBTU, DIAE; details: whole synthesis, scale of the general procedure 19.8 μmoles (30 mg resin), also 132 μmoles (200 mg resin)

In the case of “PEPTIDE1{K.K.L.F.K.K.I.L.K.V.L.[am]}$$$$V2.0”, the “crude HPLC purity” value [1] is reported as “over 90%”.
In the case of “Bn-Lys-Lys-Leu-Phe-Lys-Lys-Ile-Leu-Lys-Val-Leu-NH2”, the “crude HPLC purity” value [2] is reported as “over 90%”.
For Ac-KKLFKKILKVL-NH2, the “crude HPLC purity” value [2] was “over 90%”.
